Measurements taken from PubChem BioAssay AID493014 (National Center for Advancing Translational Sciences (NCATS), 2011).
Among all 340,000 compounds or so, about 170 (0.05%) were called active. Inconclusive means that the source gave no clear call. Such entries were picked first, then a sample of the others. The call rests on the fitted dose curve; in most records, active means well fitted inhibition curve with a large enough effect in the signal ratio, with a control signal flat (not every such curve was filed as active); inconclusive means small, poorly fitted or top-dose-only effect, or effect the other way, or a change in a side signal; inactive means flat fitted curve, though single readings scatter; the % refers to the signal ratio. A potency beside an inconclusive call is a rough fit, not a confirmed value.

Test: qHTS Assay to Find Inhibitors of Chronic Active B-Cell Receptor Signaling;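 on activity change, negative = inhibition: plate controls were basal doxycycline-induced cells for no effect and cells given 10 µM MG132 for full effect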
Settings: ABC-DLBCL IkBa-CBG/CBR reporter, luminescence ratio (green luciferase fused to IkBa over red control in TMD8 lymphoma cells), 4 h; activity change, negative = inhibition: at 46.1 µM (top of the series)
How it was run: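 Cell line TMD8 (human ABC DLBCL), stably expressing tet-inducible CBG68-IkBa fusion and CBR; IMDM/0.5% FBS; cpd up to 46 uM; dox induction, 4 h, 37C/5% CO2; dual luminescence; green/red ratio; MG132 control.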
Potency means the concentration at half of the fitted maximal effect.

Compound | activity change, negative = inhibition | Potency
CCC(=O)Nc1ccccc1C(=O)OCc1ccc(C(=O)c2ccccc2)cc1 | inconclusive: 1.2% | –
O=S1(=O)C[C@@H](N2CCOCC2)[C@H](N2CCOCC2)C1 | inconclusive: 6.28% | –
O=C(CN1C(=O)COc2ccc(Cl)cc21)N1CCCCC1 | inactive | –
CC1=NN(c2ccccc2)C(=O)C1C(=O)c1ccc(Cl)cc1 (configuration not stated) | – | inconclusive: 35.5 µM [falling, single point]
COc1cc(OC)c2c(-c3cccc(-c4cccc(C)c4)c3)cc(=O)oc2c1 | – | inconclusive: 25.9 µM [falling, partial curve, poor fit]
CN(C)c1ccc(/C=C2\C(=N)N3C(=NC2=O)Sc2cc(S(C)(=O)=O)ccc23)cc1 | inactive | –
Cc1ccc(N/N=C(\C#N)C(N)=S)c(C)c1 | inconclusive: -3.39% | –
NC(=O)c1ccc(-c2ccccc2F)cc1 | – | inconclusive: 12.6 µM [falling, partial curve, poor fit]
CC(C)C1CC(C(F)(F)F)n2nc(C(=O)O)cc2N1 (configuration not stated) | inconclusive: 6.31% | –
CCC(C)C1Nc2ccc(C(=O)NCc3ccc4c(c3)OCO4)cc2NC1=O (configuration not stated) | inconclusive: 8.22% | –
O=C(CSc1nc(-c2ccccc2)ns1)N1CCOCC1 | inconclusive: 14.1% | –
CCc1ccc(NC(=O)c2cnc(N3CCN(c4ccccn4)CC3)c3ccccc23)cc1 | – | inconclusive: 5.01 µM [falling, full curve]
COc1ccc(C)cc1NC(=O)CNCc1cccs1 | – | inconclusive: 12.6 µM [falling, partial curve]
Cc1[nH]n(-c2ccccc2)c(=O)c1/C=N/NC(=O)c1ccc(O)cc1O | inconclusive: -10.7% | –
CC1CN(CCOc2ccccc2-c2ccccc2)CC(C)O1 (configuration not stated) | inconclusive: 1.89% | –
O=C(c1ccc2c(c1)OCCCO2)c1cccs1 | – | inconclusive: 28.2 µM [falling, single point]
CCN1CCN(c2ncc(C(=O)Nc3cc(Cl)ccc3OC)c3ccccc23)CC1 | – | inconclusive: 29.1 µM [falling, single point]
Cc1cc(C)nc(N/N=C/c2cc(Br)ccc2O)n1 | – | inconclusive: 0.794 µM [rising, full curve, poor fit]
CCC1(CC)NC(=O)N(CC(=O)Nc2sc3c(c2C(N)=O)CCC3)C1=O | inconclusive: 19.4% | –
O=C(c1ccc2c3c(cccc13)CC2)C1CCCN(Cc2ccc(OCCO)cc2)C1 (configuration not stated) | – | inconclusive: 35.5 µM [falling, single point]
CCOc1ccccc1N1CCN(CC(=O)Nc2ccccc2C(=O)NC2CC2)CC1 | inconclusive: 0.265% | –
Oc1c(C=C2N=c3ccccc3=N2)sc(=S)n1-c1ccc2ccccc2c1 | – | inconclusive: 17.8 µM [falling, single point]
COc1cccc(CNC(=O)c2ccc3nc[nH]c3c2)c1 | inconclusive: -18.4% | –
COc1ccc(C)cc1NC(=O)CCCN1C(=O)C(c2ccccc2)Oc2cccnc21 (configuration not stated) | inconclusive: -12.2% | –
COc1cc(/C=C2\CCCc3c2nc2ccccc2c3C(=O)O)cc(OC)c1O | inactive | –
COc1ccc(N2CCN(C(=O)CN3c4cccc5cccc(c45)S3(=O)=O)CC2)cc1 | inconclusive: -5.21% | –

Entries of single compounds, quoted from the list. Order of values: activity change, negative = inhibition	Potency
COc1ccc(N2CCN(C(=O)CN3c4cccc5cccc(c45)S3(=O)=O)CC2)cc1 as listed: inconclusive: -5.21%	–
Cc1[nH]n(-c2ccccc2)c(=O)c1/C=N/NC(=O)c1ccc(O)cc1O as listed: inconclusive: -10.7%	–

Continuation:

Compound | activity change, negative = inhibition | Potency
Cc1ccc(C(=O)N/C(=C/c2ccco2)C(=O)Nc2cccc(C)c2)cc1 | inconclusive: -10.1% | –
O/N=C\c1ccccc1Oc1ccc(F)cc1 | inconclusive: 1.82% | –
O=C(CCl)Nc1cccc2ncccc12 | – | inconclusive: 25.9 µM [falling, single point]
O=C(CN1CCN(c2ccc(F)cc2)CC1)NCc1ccc(F)cc1 | inactive | –
Cc1ccc(NC(=O)CCSc2nc(C)cc(C)n2)cc1 | inconclusive: -12.3% | –
COc1ccc(NC(=O)CN2CCN(c3nc(-c4cccc(OC)c4)cs3)CC2)cc1 | – | inconclusive: 25.9 µM [falling, single point]
COc1ccc(Cl)cc1NC(=O)N1CCC(C)CC1 | inconclusive: 12.2% | –
O=C(NCc1ccco1)c1c(F)cccc1Cl | inconclusive: -1.35% | –
Cc1nnc(Nc2ccccc2)n(N)c1=O | inconclusive: -21.4% | –
S=C(NCCc1cccc(Cl)c1)NC1CCCCC1 | inactive | –
COc1cn(CC(=O)Nc2c(C)cc(C)cc2C)c(CN2CCCCC2)cc1=O | inactive | –
COc1ccccc1CNc1nc2nc3c(c(=O)n2[nH]1)CCC3 | – | inconclusive: 10 µM [falling, partial curve]
COc1cc(/C=N/NC(=O)c2ccoc2C)cc(OC)c1O | – | inconclusive: 18.4 µM [falling, partial curve]
C#Cc1cccc(NC(=O)c2ccc(Cl)cc2Cl)c1 | inconclusive: 1.65% | –
Cc1cc(Cl)c(OCCCCN2CCOCC2)c(Br)c1 | inconclusive: 6.84% | –
COC(=O)c1ccccc1NC(=O)CNCCc1ccc(OC)c(OC)c1 | inactive | –
Fc1ccc(NC(=S)Nc2ccccc2Cl)cc1 | inactive | –
CCn1c(SCC(=O)Nc2ccc3c(c2)OCCO3)nnc1-c1cccs1 | – | inconclusive: 29.1 µM [falling, single point]
Cc1cc(C)c(N(C(=O)c2csnn2)C(C(=O)NC2CCCC2)c2ccncc2)c(C)c1 (configuration not stated) | inconclusive: 4.27% | –
COc1ccc(-c2nc3sc(CCNC(=O)Cc4ccc(Cl)cc4)c(C)n3n2)cc1 | inconclusive: -12.6% | –
CCOC(=O)Cc1csc(NC(=O)COc2ccc(N(C)S(=O)(=O)c3ccc(C)cc3)cc2)n1 | – | inconclusive: 2.31 µM [falling, partial curve, poor fit]
Cc1ccc(S(=O)(=O)N2CCCCC2)cc1NC(=O)CSc1nnc(C2CC2)n1C | inactive | –
COc1ccccc1NS(=O)(=O)c1cccc(C(=O)OCC(=O)NC2CC2)c1 | inactive | –
CCc1cccc(Nc2cc(C)nc3nc(C)nn23)c1 | inconclusive: 0.37% | –
O=C(Nc1cccc2ccccc12)N1CCOCC1 | inconclusive: -2% | –
CCOc1ccc(OCCSc2nc3ccccc3c(=O)[nH]2)cc1 | – | inconclusive: 2.31 µM [falling, single point]
